# Experimental data from PubChem BioAssay AID1487 (National Center for Advancing Translational Sciences (NCATS), 2009).
# Where “and” joins values, the source holds several entries; their conditions need not be identical. Equal values may be shown once. The list shows a part of the results. These are further read-outs of the screen, such as a control signal, another cell line or another target. No call is given for them. Most of these compounds were active or inconclusive in the main read-out, so they are no random draw. Words in brackets tell the shape of the fitted curve; partial curves, single points and poor fits give uncertain potencies.
# Test: qHTS Assay for Modulators of Lamin A Splicing
# Details: HeLa LMNA splicing GFP/RFP minigene ratio, 48 h
# How it was run: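 Read-out is the ratio of GFP to DsRed2 object intensity, acquired by 488 nm laser-scanning cytometry on HeLa lamin A-EGFP minigene reporter cells. Compound incubation 48 hrs at 37 °C in Opti-MEM with 2% FBS; DMSO 0.5% final.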
# [1] = measured here: RFP viability control channel
# [2] = measured here: GFP splicing reporter channel
SMILES,AC50 [1],AC50 [2]
CCS(=O)(=O)N1Cc2ccccc2CC1C(=O)Nc1nnc(SCc2c(Cl)cccc2Cl)s1 (stereo not drawn),"12.6 µM [rising, partial curve]",–
OC[C@H]1O[C@@H](n2cnc3cncnc32)[C@H](O)[C@@H]1O,"3.55 µM [falling, full curve] and 7.08 µM [falling, full curve]","2.82 µM [falling, full curve] and 5.62 µM [falling, full curve]"
CCc1nc(SCC(=O)N2c3ccccc3Sc3ccccc32)c2ccccc2n1,–,"3.55 µM [rising, partial curve, poor fit]"
Cc1ccc(C)c(N2C(=O)N(Cc3c(F)cccc3Cl)c3ccccc3S2(=O)=O)c1,"0.00316 µM [falling, full curve]",–
COc1ccc(/C=C(\C#N)C(=O)OCC(=O)Nc2ccc(C(C)(C)C)cc2)cc1,"35.5 µM [rising, single point]",–
Cc1c(Br)c([N+](=O)[O-])nn1CC(=O)Nc1ccc(C(N)=O)cc1,"1.12 µM [rising, full curve, poor fit]",–
CC1Oc2ccccc2C=C1/C=N/NC(=O)c1ccccc1O (stereo not drawn),"1 µM [rising, partial curve, poor fit]",–
c1ccc(OCc2noc(CN3CCC(C4CCCCC4)C3)n2)cc1 (stereo not drawn),"0.0178 µM [falling, full curve, poor fit]",–
CCOc1ccc(NC(=O)CCN2CCN(S(=O)(=O)c3cc(Cl)ccc3OC)CC2)cc1,"11.2 µM [rising, partial curve, poor fit]",–
O=C1C(Cl)=C(Nc2ccccc2)C(=O)c2ccccc21,"11.2 µM [rising, partial curve]","35.5 µM [rising, single point]"
N#C/C(=C\c1cccs1)c1nc2ccccc2[nH]1,"7.94 µM [rising, partial curve]",–
Cc1[nH]c2ccccc2c1/C=N/Nc1nc(Nc2ccccc2)nc(N2CCOCC2)n1,"3.16 µM [rising, partial curve, poor fit]","6.31 µM [falling, single point]"
CCOC(=O)N1CCN(C(=O)CSCC(=O)Nc2nc(-c3ccc(OC)cc3)cs2)CC1,"14.1 µM [rising, single point]",–
NS(=O)(=O)c1cccc(-n2cnnn2)c1,"0.00447 µM [falling, full curve, poor fit]",–
O=c1cc(N2CCN(c3ccccc3)CC2)[nH]c(=O)n1-c1ccccc1Cl,–,"3.98 µM [rising, full curve, poor fit]"
Cc1ccc(NC(=O)C2CCN(S(=O)(=O)c3cccc4nonc34)CC2)nc1,"17.8 µM [rising, partial curve, poor fit]",–
CCCCSc1nc(O)cc(=O)n1CC,"15.8 µM [rising, single point]",–
COc1ccc(C(=O)NCC(c2ccc(Cl)cc2)N2CCCCC2)cc1 (stereo not drawn),"0.224 µM [falling, full curve, poor fit]","35.5 µM [falling, single point]"
O=C1N/C(=N/N=C/c2ccc(O)cc2)SC1Cc1ccccc1 (stereo not drawn),–,"35.5 µM [rising, single point]"
CCN=c1scc(-c2cccs2)n1/N=C/c1cc(OC)ccc1O,"8.91 µM [rising, partial curve]","7.94 µM [rising, partial curve]"
COc1ccc(CN(C(=O)CSc2nnc(-c3ccc(F)cc3)o2)c2ccc(F)cc2)cc1,"35.5 µM [rising, single point]","25.1 µM [rising, single point]"
Cc1cc(C)nc(SCC(=O)NC2=NN=C(c3ccc(Br)cc3)CS2)n1,"22.4 µM [falling, partial curve]","15.8 µM [falling, single point]"
CCOc1nc(OCC)nc(-n2cc(-c3ccccc3)nn2)n1,"14.1 µM [rising, single point]","11.2 µM [rising, single point]"
CCOC(=O)c1ccc(NC(=S)N2CCSC2c2c(F)cc(F)cc2F)cc1 (stereo not drawn),"20 µM [rising, partial curve, poor fit]",–
Nc1nc(-c2ccc(Cl)cc2)nn1C(=O)c1cccs1,–,"0.01 µM [falling, full curve, poor fit]"
CC(C)CNC(=O)Nc1ccccc1F,"0.00501 µM [falling, full curve, poor fit]",–
CC1CC[C@@]2(C(=O)O)CC[C@]3(C)C(=CCC4[C@@]5(C)CCC(O)C(C)(C)C5CC[C@@]43C)C2C1C (stereo partly drawn),"15.8 µM [rising, single point]","12.6 µM [rising, single point]"

# Looked up above.
# Entry of CC1Oc2ccccc2C=C1/C=N/NC(=O)c1ccccc1O (stereo not drawn) under AC50 [1]: 1 µM [rising, partial curve, poor fit]
# Entry of Cc1c(Br)c([N+](=O)[O-])nn1CC(=O)Nc1ccc(C(N)=O)cc1 under AC50 [1]: 1.12 µM [rising, full curve, poor fit]
# Entry of CCOc1ccc(NC(=O)CCN2CCN(S(=O)(=O)c3cc(Cl)ccc3OC)CC2)cc1 under AC50 [1]: 11.2 µM [rising, partial curve, poor fit]
# Entry of Cc1[nH]c2ccccc2c1/C=N/Nc1nc(Nc2ccccc2)nc(N2CCOCC2)n1 under AC50 [2]: 6.31 µM [falling, single point]

# Going on with the list.

SMILES,AC50 [1],AC50 [2]
CN=C(NC#N)NCCSC[C@H]1N=CN=C1C,"0.282 µM [falling, full curve, poor fit]","0.251 µM [falling, partial curve]"
COc1cccc(CNC(=O)C(=O)NCC(c2ccco2)S(=O)(=O)c2ccccc2)c1 (stereo not drawn),–,"2 µM [falling, full curve, poor fit]"
CCn1c2ccccc2c2cc(/C=N/NC(=O)c3ccccc3)ccc21,"8.91 µM [falling, partial curve]","7.08 µM [falling, partial curve]"
Cc1nn(-c2ccccc2)c2c1P(=O)(O)/C(=C1\N(C)c3ccccc3C1(C)C)C=N2,–,"12.6 µM [rising, single point]"
Oc1cccc2c(NC(=S)Nc3ccc(OC(F)F)cc3)cccc12,"2.51 µM [rising, full curve, poor fit]","1.58 µM [rising, partial curve, poor fit]"
CC1CCN(c2c(NCC3CCC(C(=O)NCCc4ccccc4)CC3)c(=O)c2=O)CC1 (stereo not drawn),–,"0.794 µM [falling, single point]"
CCOC(=O)/C(C#N)=N/Nc1ccc(S(=O)(=O)N2CCc3ccccc32)cc1,"11.2 µM [rising, partial curve]","3.55 µM [rising, single point]"
CCCCNC(=O)CSc1nc2cc3c(cc2c(=O)n1Cc1ccc(C(=O)NCCc2ccc(OC)c(OC)c2)cc1)OCO3,"14.1 µM [rising, partial curve, poor fit]","22.4 µM [rising, partial curve]"
CC(C)N(Cc1nc(-c2ccc(Cl)cc2)no1)C(=O)C(c1ccccc1)c1ccccc1,"12.6 µM [rising, single point]","12.6 µM [rising, single point]"
CN(C)c1nc(SCc2ccc(Cl)cc2)nc2c1CCCC2,"12.6 µM [rising, partial curve]",–
CN(C)c1cccc2c1C(=O)c1ccccc1C2=O,"14.1 µM [rising, partial curve, poor fit]",–
CCOc1cc(CNCc2cccnc2)ccc1OCC(=O)NC(C)(C)C,–,"0.447 µM [rising, full curve, poor fit]"
COc1ccc(-c2cc3ccc(O)c(CN4CCCC(C)C4)c3oc2=O)cc1OC (stereo not drawn),–,"0.316 µM [falling, full curve, poor fit]"
CC1=C(c2ccc(C(C)C)cc2)S(=O)(=O)N=C1N1CCC(C(=O)Nc2ccc(C)cc2)CC1,"25.1 µM [falling, partial curve]","35.5 µM [falling, single point]"
O=C(CSc1nc2ccccc2s1)Nc1cc(S(=O)(=O)N2CCOCC2)ccc1O,"10 µM [rising, single point]",–
Cc1c(C(=O)NCc2ccc3c(c2)OCO3)oc2ccc(S(=O)(=O)N3CCCCCC3)cc12,"12.6 µM [rising, partial curve]","15.8 µM [rising, partial curve]"
CC1(C)N=C(SCc2ccc(Cl)cc2)c2ccccc2N1,"1.12 µM [rising, full curve, poor fit]",–
CCn1c2ccccc2c2cc(NC(=O)c3ccco3)ccc21,"14.1 µM [rising, single point]","12.6 µM [rising, single point]"
O=C(NCCc1ccccc1)C(=O)NCC(c1cccs1)S(=O)(=O)c1cccs1 (stereo not drawn),"2.82 µM [falling, partial curve]",–
Clc1ccc2nnnc(-c3ccccc3)c2c1,"3.16 µM [rising, single point]","12.6 µM [rising, partial curve]"
O=C1NC(=O)/C(=C\c2ccc(Oc3ccc([N+](=O)[O-])cn3)cc2)S1,"15.8 µM [rising, single point]",–
COc1ccc(/C=C/C(=O)C23CC4CC(CC(C4)C2)C3)cc1CN1CCOCC1,"12.6 µM [falling, partial curve]","22.4 µM [falling, single point]"
COc1ccc(NC(=O)Cn2c(=O)n(-c3ccccc3)c(=O)c3oc4ccccc4c32)c(OC)c1,–,"0.0282 µM [rising, full curve, poor fit]"
COc1ccc(C(=O)/C=C/Nc2ccc(S(=O)(=O)Nc3nc(C)cc(C)n3)cc2)cc1OC,"10 µM [rising, partial curve, poor fit]",–
Cc1ccc(Cl)cc1NC(=O)CN1C=NS(=O)(=O)c2ccccc21,–,"14.1 µM [rising, partial curve]"
CCOC(=O)c1cnc2c(OC)cccc2c1N1CCN(c2ccccn2)CC1,–,"3.98 µM [falling, partial curve, poor fit]"
